Among the data in patent US20080199473A1 (CLEVELAND CLINIC FOUNDATION, published 2008) are binding values, retold here.

This assay has as its target GST alone. Kind of assay: GST pull-down, 35S-labelled in-vitro-translated VG5Q.

No constants are given. Whether binding was seen depends on the method and setting.

B1: human VG5Q protein (protein)
chain: MASEAPSPPRSPPPPTSPEPELAQLRRKVEKLERELRSCKRQVREIEKLLHHTERLYQNAESNNQELRTQVEELSKILQRGRNEDNKKSDVEVQTENHAPWSISDYFYQTYYNDVSLPNKVTELSDQQDQAIETSILNSKDHLQVENDAYPGTDRTENVKYRQVDHFASNSQEPASALATEDTSLEGSSLAESLRAAAEAAVSQTGFSYDENTGLYFDHSTGFYYDSENQLYYDPSTGIYYYCDVESGRYQFHSRVDLQPYPTSSTKQSKDKKLKKKRKDPDSSATNEEKDLNSEDQKAFSVEHTSCNEEENFANMKKKAKIGIHHKNSPPKVTVPTSGNTIESPLHENISNSTSFKDEKIMETDSEPEEGEITDSQTEDSYDEAITSEGNVTAEDSEDEDEDKIWPPCIRVIVIRSPVLQIGSLFIITAVNPATIGREKDMEHTLRIPEVGVSKFHAEIYFDHDLQSYVLVDQGSQNGTIVNGKQILQPKTKCDPYVLEHGDEVKIGETVLSFHIHPGSDTCDGCEPGQVRAHLRLDKKDESFVGPTLSKEEKELERRKELKKIRVKYGLQNTEYEDEKTLKNPKYKDRAGKRREQVGSEGTFQRDDAPASVHSEITDSNKGRKMLEKMGWKKGEGLGKDGGGMKTPIQLQLRRTHAGLGTGKPSSFEDVHLLQNKNKKNWDKARERFTENFPETKPQKDDPGTMPWVKGTLE
modifications: 35S label in the GST pull-down (in-vitro-translated)
For B1, the binding entry is listed as “no binding”.
